Test results: patent publication US20230242499A1, “COMPOUND OR SALT THEREOF, COMPOSITION, CHEMILU[…], METHOD FOR MEASURING CHEMILU[…], REAGENT, REAGENT KIT, AND METHOD FOR ASSAYING ANALYTE” (SYSMEX CORPORATION, priority 2022, published 2023)
Some of these results come from one statement about several compounds together.

Assays:
[1] = test system: alkaline phosphatase; test: Test Example 2: chemiluminescence intensity versus amount of alkaline phosphatase, limit of detection; format: biochemical; conditions: 42° C., 5 minutes incubation; FIGS. 2A to 2E
Method: A solution of 1,2-dioxetane derivative (Examples 1 to 4) in dimethyl sulfoxide was added to 155 μL of the reaction liquid, and the mixture was kept at 42° C. for one hour. Twenty μL of a solution containing alkaline phosphatase was added, the mixture was incubated at 42° C. for 5 minutes, and then the chemiluminescence intensity was measured. The reaction liquid used herein was a 2: 1 mixture of a buffer solution (pH 9.6) that contains magnesium chloride and Sapphire-II™ Enhancer (from Thermo Fischer Scientific Inc.), and HISCL R4 reagent (from Sysmex Corporation). In Example 3, two types of sample were prepared, a sample (S(+)) with Sapphire-II™ Enhancer added thereto, and a sample […] without such additive.

[2] = test system: alkaline phosphatase; test: Test Example 1: chemiluminous efficiency, integrated luminescence signal after adding alkaline phosphatase; format: biochemical; conditions: 1 pmol alkaline phosphatase, 42° C., 10 hours, pH 9.6, Sapphire-II Enhancer; versus Comparative Examples 1 and 2

Row | Structure (SMILES) | measured values of the count (luminescence signal) versus concentration of alkaline phosphatase [1] | chemiluminous efficiency (integrated luminescence signal) [2]
1 | COC1(c2ccc(C#Cc3ccc(C(=O)O)cc3)c(OP(=O)(O)O)c2)OOC12C1CC3CC2CC(Cl)(C3)C1 (centres unmarked) [Example 1] | depend on the concentration of alkaline phosphatase | higher chemiluminous efficiency as compared with Comparative Example 1 (CDP-Star™) and Comparative Example 2 (AquaSpark™)
2 | COC1(c2ccc(-c3ccc(C(=O)O)cc3)c(OP(=O)(O)O)c2)OOC12C1CC3CC2CC(Cl)(C3)C1 (centres unmarked) [Example 4] | depend on the concentration of alkaline phosphatase | higher chemiluminous efficiency as compared with Comparative Example 1 (CDP-Star™) and Comparative Example 2 (AquaSpark™)
3 | C#Cc1ccc(C2(OC)OOC23C2CC4CC3CC(Cl)(C4)C2)cc1OP(=O)(O)O (centres unmarked) [Example 2] | depend on the concentration of alkaline phosphatase | higher chemiluminous efficiency as compared with Comparative Example 1 (CDP-Star™) and Comparative Example 2 (AquaSpark™)
4 | COC1(c2ccc(C#CC(=O)O)c(OP(=O)(O)O)c2)OOC12C1CC3CC2CC(Cl)(C3)C1 (centres unmarked) [Example 3] | depend on the concentration of alkaline phosphatase | higher chemiluminous efficiency as compared with Comparative Example 1 (CDP-Star™) and Comparative Example 2 (AquaSpark™)
